Measured values: article doi:10.1101/2024.09.11.612483
These are yes or no findings as the source states them, for the method shown. Binding seen in cells or lysates may run through a third protein. Some entries that bind do so weakly or less than the wild type. Where a sequence is shown, tags or fusion partners need not be part of it.

The chains behind the UniProt entries cited, without tags or fusion partners. Where a name states a change or a piece, a line headed by the entry shows the natural chain unless it says otherwise.
UniProt P12004: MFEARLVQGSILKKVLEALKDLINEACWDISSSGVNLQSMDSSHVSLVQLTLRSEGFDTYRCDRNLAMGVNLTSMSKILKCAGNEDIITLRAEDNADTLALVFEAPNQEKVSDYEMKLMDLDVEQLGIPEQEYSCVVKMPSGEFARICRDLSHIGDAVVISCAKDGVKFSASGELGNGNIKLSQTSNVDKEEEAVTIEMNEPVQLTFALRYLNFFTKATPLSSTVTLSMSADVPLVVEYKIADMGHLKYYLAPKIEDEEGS

Assays:
[1] = target: HA-PCNA-WT (UniProt P12004); experiment: proximity ligation; in situ PLA (Duolink) in fixed, permeabilised U2OS cells (WT or 53BP1-KO), anti-FLAG with anti-PCNA or anti-HA; untreated, HU (1 mM, 24 h) or IR (4 Gy, 2 h after)
[2] = target: endogenous PCNA (U2OS cells) (human (endogenous in U2OS)) (UniProt P12004); experiment: as above
[3] = target: HA-PCNA-K164R (UniProt P12004); experiment: as above
[4] = target: endogenous PCNA (U2OS cells) (human (endogenous in U2OS)) (UniProt P12004); experiment: co-IP; co-immunoprecipitation with or without HU treatment; bait, cells and constructs not shown (Supplementary Figure 7c)
[5] = target: GST-PCNA (UniProt P12004); experiment: pull-down; GST-PCNA or GST-PCNA-Ub on glutathione-Sepharose beads incubated with lysate of 293T cells expressing 3xFlag-PIF1, NETN (150 mM NaCl, 1 mM EDTA, 20 mM Tris-HCl pH 8.0, 0.5% NP-40), 3 hours at 4°C; anti-Flag Western blot; only the target purified

binding [1]	binding [2]	binding [3]	binding [4]	binding [5]	Binder
binds	binds	binds	binds		Flag-PIF1 (stably expressed in U2OS cells) (protein, UniProt Q9H611 1-641) MLSGIEAAAGEYEDSELRCRVAVEELSPGGQPRRRQALRTAELSLGRNERRELMLRLQAPGPAGRPRCFPLRAARLFTRFAEAGRSTLRLPAHDTPGAGAVQLLLSDCPPDRLRRFLRTLRLKLAAAPGPGPASARAQLLGPRPRDFVTISPVQPEERRLRAATRVPDTTLVKRPVEPQAGAEPSTEAPRWPLPVKRLSLPSTKPQLSEEQAAVLRAVLKGQSIFFTGSAGTGKSYLLKRILGSLPPTGTVATASTGVAACHIGGTTLHAFAGIGSGQAPLAQCVALAQRPGVRQGWLNCQRLVIDEISMVEADLFDKLEAVARAVRQQNKPFGGIQLIICGDFLQLPPVTKGSQPPRFCFQSKSWKRCVPVTLELTKVWRQADQTFISLLQAVRLGRCSDEVTRQLQATASHKVGRDGIVATRLCTHQDDVALTNERRLQELPGKVHRFEAMDSNPELASTLDAQCPVSQLLQLKLGAQVMLVKNLSVSRGLVNGARGVVVGFEAEGRGLPQVRFLCGVTEVIHADRWTVQATGGQLLSRQQLPLQLAWAMSIHKSQGMTLDCVEISLGRVFASGQAYVALSRARSLQGLRVLDFDPMAVRCDPRVLHFYATLRRGRSLSLESPDDDEAASDQENMDPIL
				binds	3xFlag-PIF1 (293T cells, transfected) (protein, UniProt Q9H611 1-641) MLSGIEAAAGEYEDSELRCRVAVEELSPGGQPRRRQALRTAELSLGRNERRELMLRLQAPGPAGRPRCFPLRAARLFTRFAEAGRSTLRLPAHDTPGAGAVQLLLSDCPPDRLRRFLRTLRLKLAAAPGPGPASARAQLLGPRPRDFVTISPVQPEERRLRAATRVPDTTLVKRPVEPQAGAEPSTEAPRWPLPVKRLSLPSTKPQLSEEQAAVLRAVLKGQSIFFTGSAGTGKSYLLKRILGSLPPTGTVATASTGVAACHIGGTTLHAFAGIGSGQAPLAQCVALAQRPGVRQGWLNCQRLVIDEISMVEADLFDKLEAVARAVRQQNKPFGGIQLIICGDFLQLPPVTKGSQPPRFCFQSKSWKRCVPVTLELTKVWRQADQTFISLLQAVRLGRCSDEVTRQLQATASHKVGRDGIVATRLCTHQDDVALTNERRLQELPGKVHRFEAMDSNPELASTLDAQCPVSQLLQLKLGAQVMLVKNLSVSRGLVNGARGVVVGFEAEGRGLPQVRFLCGVTEVIHADRWTVQATGGQLLSRQQLPLQLAWAMSIHKSQGMTLDCVEISLGRVFASGQAYVALSRARSLQGLRVLDFDPMAVRCDPRVLHFYATLRRGRSLSLESPDDDEAASDQENMDPIL
